This data set concerns cMR1 (core RAG1, MBP fusion) + cMR2 (core RAG2, MBP fusion). Put plainly: competition with a labelled probe. To be noted: cold competitor against labeled 23-RSS, with or without HMGB1, summarized as within ~2-fold of 23-RSS; binding buffer; recombinant protein; protein details: N-terminal MBP,N-terminal MBP; label: 5' radiolabel, top strand, unlabeled as competitor.

Construct, isoform or probe ends are uncertain for at least one entry. A weaker result is weaker than the reference pair of the same experiment.

“TCCCCGAAAAGTGCCACCTGACGTCTAAGAAACCATTATTATCATGACATTAACCTATAAA (double strand) [bps6197]”: the binding result was “binds more weakly”.

For the origin of these results see article PMC2666730, “HMGB1/2 can target DNA for illegitimate cleavage by the RAG1/2 complex”.
